Test results from article PMC12742733.
Results are given in words; binding and its absence hold for the method and conditions named. Binding seen in cells or lysates may run through a third protein. Binding can be weak; no strength is given.

Protein sequences, listed by entry. Tags and fused reporters are not part of them. Lines headed by an entry give the natural chain unless they say otherwise; changes in a name come on top. Residues count along the entry.
UniProt Q16620, residues 32-822: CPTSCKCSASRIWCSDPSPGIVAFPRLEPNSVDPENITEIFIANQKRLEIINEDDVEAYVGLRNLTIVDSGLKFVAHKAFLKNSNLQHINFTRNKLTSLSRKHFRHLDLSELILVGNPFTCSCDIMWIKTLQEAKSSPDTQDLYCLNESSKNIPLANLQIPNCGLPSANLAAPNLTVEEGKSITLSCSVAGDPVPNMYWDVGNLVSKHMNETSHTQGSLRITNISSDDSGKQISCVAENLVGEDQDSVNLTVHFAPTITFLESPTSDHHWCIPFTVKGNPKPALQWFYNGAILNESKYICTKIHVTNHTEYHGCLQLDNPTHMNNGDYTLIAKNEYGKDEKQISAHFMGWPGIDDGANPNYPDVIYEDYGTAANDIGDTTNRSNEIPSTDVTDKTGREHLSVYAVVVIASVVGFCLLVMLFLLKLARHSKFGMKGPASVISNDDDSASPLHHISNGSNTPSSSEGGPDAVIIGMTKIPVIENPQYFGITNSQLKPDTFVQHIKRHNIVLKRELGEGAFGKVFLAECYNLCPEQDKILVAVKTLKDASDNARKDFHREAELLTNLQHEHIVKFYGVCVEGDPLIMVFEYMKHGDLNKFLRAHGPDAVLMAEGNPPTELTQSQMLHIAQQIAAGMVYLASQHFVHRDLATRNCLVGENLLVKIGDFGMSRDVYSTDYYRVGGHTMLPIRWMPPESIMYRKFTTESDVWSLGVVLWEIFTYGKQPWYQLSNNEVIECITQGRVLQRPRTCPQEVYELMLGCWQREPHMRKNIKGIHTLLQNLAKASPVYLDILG
UniProt Q9H156: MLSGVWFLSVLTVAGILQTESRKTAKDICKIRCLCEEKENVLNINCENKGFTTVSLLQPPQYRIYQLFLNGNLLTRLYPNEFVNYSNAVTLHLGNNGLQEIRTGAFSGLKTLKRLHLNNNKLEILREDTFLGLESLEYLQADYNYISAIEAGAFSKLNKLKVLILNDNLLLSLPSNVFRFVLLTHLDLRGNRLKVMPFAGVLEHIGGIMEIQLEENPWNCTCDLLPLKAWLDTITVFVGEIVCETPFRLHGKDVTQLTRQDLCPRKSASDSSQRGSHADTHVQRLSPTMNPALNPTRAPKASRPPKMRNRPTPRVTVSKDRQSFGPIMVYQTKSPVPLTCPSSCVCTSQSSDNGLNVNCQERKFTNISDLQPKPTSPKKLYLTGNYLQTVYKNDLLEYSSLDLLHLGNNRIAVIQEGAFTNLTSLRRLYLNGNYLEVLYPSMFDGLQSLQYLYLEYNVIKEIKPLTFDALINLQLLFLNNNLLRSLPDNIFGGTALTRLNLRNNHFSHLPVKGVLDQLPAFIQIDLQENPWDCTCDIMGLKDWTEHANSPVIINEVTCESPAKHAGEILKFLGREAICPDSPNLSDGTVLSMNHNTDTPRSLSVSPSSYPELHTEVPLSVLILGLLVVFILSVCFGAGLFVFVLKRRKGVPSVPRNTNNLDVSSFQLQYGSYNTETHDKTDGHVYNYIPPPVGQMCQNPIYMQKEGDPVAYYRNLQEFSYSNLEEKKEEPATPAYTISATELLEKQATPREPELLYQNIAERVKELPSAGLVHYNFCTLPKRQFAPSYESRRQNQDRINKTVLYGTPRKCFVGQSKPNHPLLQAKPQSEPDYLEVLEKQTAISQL

Molecular target: TrkB (pCMV-SPORT6-TrkB), untagged (UniProt Q16620)
Assay: co-IP; HEK293T cells transfected with pCMV-SPORT6-TrkB and pDisplay-SLITRK2 plasmids; lysis in 20 mM Tris pH 7.4, 1.0% Triton X-100, 0.1% SDS, 150 mM NaCl, 10% glycerol; antibody overnight at 4 °C, protein A-Sepharose; immunoblot

binding: binds
Substance: HA-tagged SLITRK2 ΔPDZ (from UniProt Q9H156) (receptor)
